The values below come from PMC8225790.

Chains of the proteins cited; added tags and fusions are not shown.
UniProt P56773: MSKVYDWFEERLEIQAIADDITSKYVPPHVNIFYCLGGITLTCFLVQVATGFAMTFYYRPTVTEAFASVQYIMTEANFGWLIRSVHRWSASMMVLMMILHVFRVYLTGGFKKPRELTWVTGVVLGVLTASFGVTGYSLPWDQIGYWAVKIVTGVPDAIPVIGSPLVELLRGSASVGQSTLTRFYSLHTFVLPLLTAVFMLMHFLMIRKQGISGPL

No constants are given. Whether binding was seen depends on the method and setting. Binding can be weak; no strength is given.

B1: PGR5 (protein, UniProt Q9SL05 61-133)
chain: KNVNEGKGLFAPLVVVTRNLVGKKRFNQLRGKAIALHSQVITEFCKSIGADAKQRQGLIRLAKKNGERLGFLA
B2: PGRL1A (without the transit peptide, PGRL1A_(61-324)) (domain or fragment, UniProt Q8H112 61-324)
chain: ATTEQSGPVGGDNVDSNVLPYCSINKAEKKTIGEMEQEFLQALQSFYYDGKAIMSNEEFDNLKEELMWEGSSVVMLSSDEQRFLEASMAYVSGNPILNDEEYDKLKLKLKIDGSDIVSEGPRCSLRSKKVYSDLAVDYFKMLLLNVPATVVALGLFFFLDDITGFEITYIMELPEPYSFIFTWFAAVPVIVYLALSITKLIIKDFLILKGPCPNCGTENTSFFGTILSISSGGKTNTVKCTNCGTAMVYDSGSRLITLPEGSQA
B3: FNR2 (protein, UniProt Q8W493 58-369)
chain: ITTETDTPTPAKKVEKVSKKNEEGVIVNRYRPKEPYTGKCLLNTKITADDAPGETWHMVFSHQGEIPYREGQSVGVIADGIDKNGKPHKVRLYSIASSALGDLGNSETVSLCVKRLVYTNDQGETVKGVCSNFLCDLAPGSDVKLTGPVGKEMLMPKDPNATVIMLATGTGIAPFRSFLWKMFFEKHDDYKFNGLAWLFLGVPTTSSLLYQEEFDKMKAKAPENFRVDYAISREQANDKGEKMYIQTRMAQYAAELWELLKKDNTFVYMCGLKGMEKGIDDIMVSLAANDGIDWFDYKKQLKKAEQWNVEVY
B4: FNR1 (protein, UniProt Q9FKW6 50-360)
chain: VTTDTTEAPPVKVVKESKKQEEGIVVNKFKPKNPYTGRCLLNTKITGDDAPGETWHIVFTTEGEVPYREGQSIGVIPEGIDKNGKPHKLRLYSIASSAIGDFGDSKTVSLCVKRLVYTNDGGEIVKGVCSNFLCDLKPGDEAKITGPVGKEMLMPKDPNATIIMLGTGTGIAPFRSFLWKMFFEEHEDYKFNGLAWLFLGVPTSSSLLYKEEFEKMKEKNPDNFRLDFAVSREQTNEKGEKMYIQTRMAEYAEELWELLKKDNTFVYMCGLKGMEKGIDDIMVSLAAKDGIDWLEYKKQLKRSEQWNVEVY

In the assay the target is PGRL2 (mature protein without its transit peptide, PGRL2_(41-299)) (Arabidopsis thaliana) (UniProt F4KJ55). Description: two-hybrid; split-ubiquitin assay (Dual Membrane kit, Dualsystems Biotech) in DSY-1 yeast; PGRL2-Cub as bait, NubG fusions as prey; colonies plated on permissive (-LT) and then selective (-LTH) medium.
With Cytb6 (from UniProt P56773 1-215), the binding result is given as “no binding”. Consider B1, for which the binding result is given as “binds”. As to B2, the binding result is listed as “binds”. For B3, the binding entry was “no binding”. Consider B4, for which the binding entry is on record as “no binding”.
